No constants are given. Whether binding was seen depends on the method and setting. Some results given as binding are weak or reduced against the parent protein; the word gives no strength.
How the values were obtained:
[1] = biological target: human IL-21 (human) (UniProt Q9HBE4); experiment: SPR (ProtOn XPR36), biotinylated hIL21 immobilised on NLC chip
[2] = biological target: human IL-21 (human) (UniProt Q9HBE4); experiment: SPR (FIG. 14)
[3] = biological target: human IL-21 (human) (UniProt Q9HBE4); experiment: ELISA, hIL-21 coated at 1 ug/ml, serial dilutions of antibody
[4] = biological target: human IL-21 (human) (UniProt Q9HBE4); experiment: SPR (ProteOn XPR36, NLC chip): immobilised biotinylated hIL21, antibody as analyte
[5] = biological target: human IL-21 (human) (UniProt Q9HBE4); experiment: ELISA: coated hIL-21 (1 ug/ml), serial dilutions of the antibody, anti-human IgG HRP, TMB
[6] = biological target: human IL-21 (human) (UniProt Q9HBE4); experiment: ELISA on coated hIL-21 (FIG. 13)

The chains behind the UniProt entries cited, without tags or fusion partners. Where a name states a change or a piece, a line headed by the entry shows the natural chain unless it says otherwise.
UniProt Q9HBE4: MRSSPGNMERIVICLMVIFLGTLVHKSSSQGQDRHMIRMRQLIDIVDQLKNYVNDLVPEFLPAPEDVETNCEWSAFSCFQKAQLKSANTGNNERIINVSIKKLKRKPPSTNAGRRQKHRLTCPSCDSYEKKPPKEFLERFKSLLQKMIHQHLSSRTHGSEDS

Measured: binding

B1: humanized 2P2 antibody (antibody, V domains shown)
VH: QVQLVQSGAEVKKPGASVKVSCKASGFNIKDYYIHWVRQAPGQGLELIGWIDPESGDTNYAQKFQVKATMTRDTSISTAYMELSRLRSDDTAVYYCNDGSGYWGQGTTVTVSS
VL: DVVMTQSPLSLPVTLGQPASISCKSSQSLLDSDGETYLNWLQQRPGQSPRRLISLVSKLDSGVPDRFSGSGSGTDFTLKISRVEAEDVGVYYCWQGTHFPYTFGQGTKLEIK
binds: [1] | [2] | [3] | [4] | [5] | [6]

— patent US20190111148A1
